± gives the standard deviation of the averaged measurements. Values are relative to the signal before dosing, not to a vehicle control; the signal also falls without drug.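 Fibroblast labels denote human fibroblasts, mainly primary ones from uterus (C12385, HUF), lung (H6013), bone (Hs27A), adrenal (HADF) and skin (WS1), plus mammary HMF and breast cancer-associated Hs343T. Cancer cells are basal-like or mesenchymal-like triple-negative breast cancer lines. A hit is a response shift exceeding 3x replicate standard deviation. The tissue of the other fibroblasts is not given here.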
Test system: MDAMB468
Experiment: relative JC-1 red fluorescence (viability) vs pre-drug, coculture with fibroblast (fraction); higher = more viable cancer cells
Conditions: 100 µM
Protocol: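 JC-1 labelled TNBC cells cocultured 1:1 (1,500 cells each) with CellTrace Violet stained primary or stromal fibroblasts in 384-well plates in FluoroBrite medium, treated with one of 42 anticancer drugs at 0.1, 1, 10 or 100 uM. JC-1 red fluorescence (mitochondrial integrity in cancer cells only) was read by plate reader every 8 h for 72 h. Values are normalised to each well's pre-drug value. The stock of one drug was tenfold lower, so its dose labels may be too high.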

COc1cc([C@@H]2c3cc4c(cc3[C@@H](O[C@@H]3O[C@@H]5CO[C@@H](C)O[C@H]5[C@H](O)[C@H]3O)[C@H]3COC(=O)[C@H]23)OCO4)cc(OC)c1O [Etoposide]
relative JC-1 red fluorescence
Conditions	8 h	16 h	24 h	32 h	40 h	48 h	56 h	64 h	72 h
coculture fibroblast: C12385	0.878 ± 0.017	0.864 ± 0.026	0.832 ± 0.035	0.78 ± 0.041	0.73 ± 0.046	0.711 ± 0.053	0.667 ± 0.062	0.649 ± 0.051	0.631 ± 0.042
coculture fibroblast: H6013	0.86 ± 0.012	0.874 ± 0.03	0.83 ± 0.035	0.811 ± 0.04	0.805 ± 0.043	0.806 ± 0.046	0.773 ± 0.042	0.75 ± 0.039	0.685 ± 0.033
coculture fibroblast: H6019	0.814 ± 0.013	0.772 ± 0.019	0.727 ± 0.019	0.676 ± 0.054	0.657 ± 0.046	0.658 ± 0.057	0.64 ± 0.078	0.635 ± 0.087	0.638 ± 0.1
coculture fibroblast: H6076	0.901 ± 0.0067	0.901 ± 0.017	0.852 ± 0.012	0.843 ± 0.021	0.7429 ± 0.0068	0.704 ± 0.008	0.641 ± 0.011	0.621 ± 0.03	0.661 ± 0.024
coculture fibroblast: H6231	0.83 ± 0.04	0.878 ± 0.023	0.795 ± 0.043	0.772 ± 0.037	0.698 ± 0.055	0.687 ± 0.076	0.643 ± 0.069	0.624 ± 0.081	0.625 ± 0.083
coculture fibroblast: HADF	0.8527 ± 0.0026	0.83 ± 0.022	0.768 ± 0.035	0.752 ± 0.035	0.705 ± 0.044	0.699 ± 0.04	0.656 ± 0.04	0.66 ± 0.041	0.591 ± 0.013
coculture fibroblast: HCFa	0.8482 ± 0.0019	0.8033 ± 0.0079	0.7444 ± 0.0066	0.71074 ± 0.00041	0.674 ± 0.002	0.6876 ± 0.0054	0.6434 ± 0.0017	0.621 ± 0.0037	0.562 ± 0.012
coculture fibroblast: HCPF	0.8521 ± 0.003	0.906 ± 0.016	0.8485 ± 0.0044	0.844 ± 0.016	0.766 ± 0.016	0.736 ± 0.016	0.697 ± 0.021	0.672 ± 0.019	0.658 ± 0.037
coculture fibroblast: HHSteC	0.884 ± 0.012	0.879 ± 0.017	0.836 ± 0.017	0.796 ± 0.025	0.774 ± 0.017	0.778 ± 0.016	0.719 ± 0.014	0.703 ± 0.0045	0.641 ± 0.01
coculture fibroblast: HMF	0.869 ± 0.012	0.943 ± 0.019	0.868 ± 0.027	0.841 ± 0.015	0.748 ± 0.02	0.7126 ± 0.0027	0.661 ± 0.015	0.642 ± 0.0074	0.636 ± 0.0096
coculture fibroblast: HPFa	0.9196 ± 0.0045	0.922 ± 0.011	0.8938 ± 0.0074	0.8485 ± 0.0074	0.811 ± 0.016	0.82 ± 0.029	0.763 ± 0.037	0.736 ± 0.015	0.666 ± 0.029
coculture fibroblast: HUF	0.903 ± 0.021	0.849 ± 0.018	0.785 ± 0.019	0.72 ± 0.044	0.668 ± 0.053	0.651 ± 0.046	0.601 ± 0.042	0.587 ± 0.038	0.574 ± 0.024
coculture fibroblast: Hs5	0.944 ± 0.067	0.947 ± 0.05	0.897 ± 0.055	0.859 ± 0.053	0.793 ± 0.04	0.76 ± 0.034	0.727 ± 0.027	0.71 ± 0.025	0.745 ± 0.024
coculture fibroblast: Hs27A	0.848 ± 0.027	0.858 ± 0.001	0.7928 ± 0.0039	0.814 ± 0.013	0.758 ± 0.018	0.77 ± 0.048	0.745 ± 0.048	0.733 ± 0.027	0.672 ± 0.0077
coculture fibroblast: Hs343T	0.8884 ± 0.0051	0.969 ± 0.011	0.885 ± 0.038	0.84 ± 0.065	0.719 ± 0.1	0.672 ± 0.12	0.591 ± 0.12	0.559 ± 0.12	0.539 ± 0.13
coculture fibroblast: WS1	0.827 ± 0.012	0.772 ± 0.035	0.727 ± 0.045	0.661 ± 0.055	0.614 ± 0.059	0.58 ± 0.042	0.551 ± 0.045	0.531 ± 0.038	0.519 ± 0.038
